Assay in all cases: co-IP
Experiment [1] addresses T1, wildtype (wt) murine meprin α (mouse) (UniProt P28825).
T1 sequence: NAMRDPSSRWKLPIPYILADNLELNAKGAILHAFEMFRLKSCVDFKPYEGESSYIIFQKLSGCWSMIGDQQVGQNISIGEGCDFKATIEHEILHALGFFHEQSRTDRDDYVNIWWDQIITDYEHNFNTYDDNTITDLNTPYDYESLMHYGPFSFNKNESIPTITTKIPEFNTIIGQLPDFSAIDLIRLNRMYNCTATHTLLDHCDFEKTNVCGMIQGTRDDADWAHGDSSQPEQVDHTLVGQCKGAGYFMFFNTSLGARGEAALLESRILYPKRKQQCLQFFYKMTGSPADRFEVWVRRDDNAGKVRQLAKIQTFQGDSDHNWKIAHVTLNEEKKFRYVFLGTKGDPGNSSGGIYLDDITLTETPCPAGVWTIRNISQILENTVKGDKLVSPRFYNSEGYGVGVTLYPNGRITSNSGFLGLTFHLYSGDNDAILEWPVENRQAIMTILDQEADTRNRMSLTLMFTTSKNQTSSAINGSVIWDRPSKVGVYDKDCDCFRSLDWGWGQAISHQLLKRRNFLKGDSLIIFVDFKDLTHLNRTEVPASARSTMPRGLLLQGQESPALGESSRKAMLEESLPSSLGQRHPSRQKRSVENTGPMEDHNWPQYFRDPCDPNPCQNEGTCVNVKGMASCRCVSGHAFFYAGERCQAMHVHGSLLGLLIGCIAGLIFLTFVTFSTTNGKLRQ

Experiment [2] deals with T2, catalytically inactive murine meprin α variant E155A (mouse) (UniProt P28825).
T2 sequence: T1 sequence with E91A

Experiment [3] deals with C-terminally Myc-FLAG-tagged murine dermokine β (mouse).

Substitutions are numbered along the chain they refer to. Names and notes keep the numbering of the source. Results are given in words; binding and its absence hold for the method and conditions named. In cells and extracts the contact can be indirect. A result given as binding can be weak or reduced; the word gives no strength.

On to “C-terminally Myc-FLAG-tagged murine dermokine β (mouse)”, for which the binding result in experiment [1] and in experiment [2] was “binds” each time.

B1: wildtype (wt) murine meprin α (enzyme, UniProt P28825 65-747)
chain: T1 sequence
Regarding B1, in experiment [3], the binding result is listed as “binds”.

B2: catalytically inactive murine meprin α variant E155A (enzyme, UniProt P28825 65-747)
chain: T1 sequence with E91A
With B2, the binding entry in experiment [3] was “binds”.
